Source: publication PMC10585743
Results are given in words; binding and its absence hold for the method and conditions named. In cells and extracts the contact can be indirect. Some binding calls cover weakened binding; strength is not graded here.

Amino acid sequences for entries named in this document (tags omitted). Residues count along the entry.
UniProt O60486, residues 35-1568: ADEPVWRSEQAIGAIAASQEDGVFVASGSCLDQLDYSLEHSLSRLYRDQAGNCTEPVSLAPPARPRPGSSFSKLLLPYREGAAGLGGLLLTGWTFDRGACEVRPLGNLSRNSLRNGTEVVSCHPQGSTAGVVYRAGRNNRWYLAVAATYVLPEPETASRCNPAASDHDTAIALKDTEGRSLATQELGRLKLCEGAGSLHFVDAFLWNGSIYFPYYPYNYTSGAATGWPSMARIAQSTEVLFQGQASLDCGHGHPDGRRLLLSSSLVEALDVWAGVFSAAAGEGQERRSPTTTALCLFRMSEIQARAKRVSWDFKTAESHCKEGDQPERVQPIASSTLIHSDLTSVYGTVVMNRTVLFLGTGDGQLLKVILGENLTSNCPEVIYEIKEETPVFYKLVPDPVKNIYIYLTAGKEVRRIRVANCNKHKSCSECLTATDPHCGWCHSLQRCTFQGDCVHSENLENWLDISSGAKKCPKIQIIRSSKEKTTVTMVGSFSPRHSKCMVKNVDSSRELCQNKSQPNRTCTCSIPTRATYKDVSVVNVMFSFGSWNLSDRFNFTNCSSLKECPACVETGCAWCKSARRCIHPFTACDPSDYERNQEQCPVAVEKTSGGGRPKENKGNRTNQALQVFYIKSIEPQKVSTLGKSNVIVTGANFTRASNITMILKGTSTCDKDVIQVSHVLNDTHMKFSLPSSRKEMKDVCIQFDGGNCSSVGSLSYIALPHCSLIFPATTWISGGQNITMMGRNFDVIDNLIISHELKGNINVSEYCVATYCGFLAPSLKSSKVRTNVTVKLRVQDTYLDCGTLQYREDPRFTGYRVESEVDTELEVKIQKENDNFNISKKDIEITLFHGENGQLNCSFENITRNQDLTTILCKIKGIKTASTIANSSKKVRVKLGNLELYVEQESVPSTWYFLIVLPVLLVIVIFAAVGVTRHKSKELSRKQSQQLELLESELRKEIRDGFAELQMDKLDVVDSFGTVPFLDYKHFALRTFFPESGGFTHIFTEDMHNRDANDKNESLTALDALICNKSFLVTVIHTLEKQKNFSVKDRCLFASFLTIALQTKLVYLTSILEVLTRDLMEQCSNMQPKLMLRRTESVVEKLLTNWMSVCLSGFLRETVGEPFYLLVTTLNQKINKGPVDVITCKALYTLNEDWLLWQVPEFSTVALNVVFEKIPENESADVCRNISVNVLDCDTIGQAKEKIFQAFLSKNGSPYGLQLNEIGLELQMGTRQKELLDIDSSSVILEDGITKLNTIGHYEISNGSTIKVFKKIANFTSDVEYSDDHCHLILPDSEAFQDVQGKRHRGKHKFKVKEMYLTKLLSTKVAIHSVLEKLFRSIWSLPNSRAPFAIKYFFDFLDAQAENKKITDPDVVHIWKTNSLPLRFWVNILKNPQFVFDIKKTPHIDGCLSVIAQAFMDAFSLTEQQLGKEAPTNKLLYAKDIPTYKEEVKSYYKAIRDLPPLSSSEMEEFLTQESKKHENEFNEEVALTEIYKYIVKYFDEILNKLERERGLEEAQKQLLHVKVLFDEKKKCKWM
UniProt P11021, residues 19-654: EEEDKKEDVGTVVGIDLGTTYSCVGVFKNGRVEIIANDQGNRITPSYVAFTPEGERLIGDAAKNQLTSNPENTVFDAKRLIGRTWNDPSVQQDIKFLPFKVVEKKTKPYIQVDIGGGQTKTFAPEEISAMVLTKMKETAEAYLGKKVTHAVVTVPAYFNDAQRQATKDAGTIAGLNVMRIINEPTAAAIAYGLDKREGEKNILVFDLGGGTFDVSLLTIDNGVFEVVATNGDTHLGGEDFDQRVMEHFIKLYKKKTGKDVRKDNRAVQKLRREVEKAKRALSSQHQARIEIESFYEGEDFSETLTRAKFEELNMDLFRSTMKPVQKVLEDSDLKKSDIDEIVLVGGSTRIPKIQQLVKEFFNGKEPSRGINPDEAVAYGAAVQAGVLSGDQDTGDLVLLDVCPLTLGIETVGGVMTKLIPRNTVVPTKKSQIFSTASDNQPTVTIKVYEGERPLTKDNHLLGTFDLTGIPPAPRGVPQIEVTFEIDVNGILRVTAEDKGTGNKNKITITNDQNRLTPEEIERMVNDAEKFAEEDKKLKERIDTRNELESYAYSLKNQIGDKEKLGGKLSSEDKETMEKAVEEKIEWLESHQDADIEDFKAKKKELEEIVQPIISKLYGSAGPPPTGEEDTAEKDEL

Target: Plexin C1 (PLXNC1) (human (endogenous in CHON-001)) (UniProt O60486)
Assay: co-IP; lysates of IL-1β-treated CHON-001 cells; 2 μg anti-PLXNC1 or anti-GRP78 antibody or goat anti-mouse IgG, protein A/G beads (Co-IP kit); PLXNC1 and GRP78 detected by western blotting

glucose-regulating protein 78 (GRP78) (from UniProt P11021 19-654)
binding: binds
